In US5840867:

Tested on: thrombin
Assay: inhibition of the protein
Settings: 20 uM control DNA, 10 nM thrombin; 24 s thrombin alone; purified native protein; protein details: Sigma T-6759; single-stranded DNA; variant of consensus 7-mer GGTTGGG; counted as no effect

For GGGGGTT [control 7-mer GGGGGTT], the functional effect of the aptamer (s clotting time) was 26.
